# Test results taken from PubChem BioAssay AID1439 (NMMLSC, 2008).
# Chains of the proteins cited; added tags and fusions are not shown.
# UniProt P09471, whole entry, looked up: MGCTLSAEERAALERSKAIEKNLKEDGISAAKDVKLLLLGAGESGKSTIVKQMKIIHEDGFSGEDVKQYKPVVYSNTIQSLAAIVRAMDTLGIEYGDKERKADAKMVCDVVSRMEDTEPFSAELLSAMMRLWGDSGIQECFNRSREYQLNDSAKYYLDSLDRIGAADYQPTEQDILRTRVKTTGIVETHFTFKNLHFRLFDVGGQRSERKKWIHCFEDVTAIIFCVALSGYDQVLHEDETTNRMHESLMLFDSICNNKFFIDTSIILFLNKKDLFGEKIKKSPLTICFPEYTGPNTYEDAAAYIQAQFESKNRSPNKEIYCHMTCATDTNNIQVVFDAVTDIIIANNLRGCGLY
# Screen size: about 220,000 compounds; about 770 (0.35%) were called active. The shares of active, inactive and inconclusive entries below differ from those in the screen. Rule as the data show it: active = binding response below about 49% or above about 150%; inconclusive = no clear call, values can overlap the other calls; inactive = in between. Non-standard residues stand in square brackets, D forms with d. Residues, ends and D or L forms follow the SMILES beside them. pGlu = O=C1CC[CH](C(=O)O)N1
# Biological target: Guanine nucleotide-binding protein G(o) subunit alpha (Homo sapiens) (UniProt P09471)
# Assay: RGS7-Galphao binding modulators, primary screen, biochemical, multiplexed bead flow cytometry (AID 1439);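 also: fluorescent Galphao held in activated GDP-AlF4 state binding bead-coupled RGS7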
# Conditions: at 10 µM, actives lie on both sides
row,SMILES,binding response (% of control)
1,COc1ccccc1C(=O)C1CCCN(C(=O)CCn2cnnn2)C1 (stereo not drawn),inconclusive: 130%
2,O=C(N/N=C/C=C/c1ccccc1[N+](=O)[O-])c1ccncc1,inconclusive: 103%
3,COc1ccc2nc(NC(=O)C(NS(=O)(=O)c3cccc4nsnc34)C(C)C)sc2c1 (stereo not drawn),inactive: 98.5%
4,Cc1ccnc2nc(C(=O)NC3=NCCS3)nn12,inactive: 104%
5,Cc1ccc(NC(=O)CCCSc2ccccc2)cc1S(=O)(=O)N1CCOCC1,inactive: 149%
6,Cc1cc(C)c2nc(C)cc(Nc3ccc(C(=O)N4CCOCC4)cc3)c2c1,inconclusive: 24.3%
7,COc1cc(OC)c2c(-c3ccccc3)cc(=O)oc2c1C(CCN1CCCC(C)C1)c1ccc2c(c1)OCO2 (stereo not drawn),inconclusive: 102%
8,O=C(Cc1ccc([N+](=O)[O-])cc1)N1N=C(c2ccncc2)CC1(O)C(F)(F)F (stereo not drawn),inconclusive: 94.9%
9,Cc1ccc(Cl)cc1N1CCN(Cc2cc(=O)n3ccsc3n2)CC1,inactive: 102%
10,CCNC(=O)C(CC(C)C)NC(=O)C(CO)NC(=O)C1CCC(=O)N1 (stereo not drawn) ([pGlu]-Ser-Leu-NHEt; configuration not given here),inconclusive: 115%
11,COc1ccc(NC(=S)N(CCN2CCOCC2)Cc2cc3cc4c(cc3[nH]c2=O)OCO4)cc1,inconclusive: 124%
12,CCC(C)C(=O)Nn1c(C2CC2)nc2cc(OC)c(OC)cc2c1=O (stereo not drawn),inconclusive: 84.1%
13,O=C(c1cc2ccccc2o1)N1CC=C(c2ccccc2)CC1,inconclusive: 74%
14,Cc1cc2c(cc1C)N(Cc1ccccc1)C1=NCCCN12,inconclusive: 113%
15,CC1CC(C)CN(CCOc2ccc(Br)cc2)C1 (stereo not drawn),inactive: 104%
16,CCOCC(=O)Nc1ccc([N+](=O)[O-])cc1OC,inconclusive: 93.6%
17,O=C(NCc1cccnc1)c1ccccc1Br,inactive: 101%
18,COc1ccc(OC)c(Nc2nc(NCCC(C)C)nc(N)c2[N+](=O)[O-])c1,inconclusive: 58.2%
19,COc1cc(C2CC(c3cccnc3)=NN2c2ccc(F)cc2)cc(OC)c1OC (stereo not drawn),inconclusive: 87.3%
20,COc1ccccc1C(=O)C1CCCN(C(=O)CCc2ccccn2)C1 (stereo not drawn),inactive: 89%
21,Cc1nc(C(N)=O)nc2ccccc12,inconclusive: 226%
22,O=C(CN1CCC(Cc2ccccc2)CC1)N1CCc2ccccc2C1,inconclusive: 92.1%

row,SMILES,binding response (% of control)
1,CCOC(=O)C(=NCC1CCCO1)NNc1ccccc1Cl (stereo not drawn),inconclusive: 92.9%
2,CC(=O)c1cccc(NC(=O)COC(=O)COc2ccc(Cl)cc2)c1,inactive: 99%
3,CCC(=O)Oc1ccc(C(=O)Nc2ccc([N+](=O)[O-])cc2)cc1,inconclusive: 81.2%
4,Cc1ccc(NS(=O)(=O)c2cc(C(=O)N3CCN(C)CC3)ccc2C)cc1C,inconclusive: 108%
5,CC(=O)N(C)c1nc(N)n(-c2ccccc2)n1,inactive: 97%
6,COC(=O)COc1cc(C)cc2oc(=O)c(CC(=O)OC)c(C)c12,inactive: 98.9%
7,Cc1cc(NC(=O)CSc2nnc(-c3ccco3)o2)no1,inactive: 95.6%
8,COC(=O)c1cnc(Nc2ccc(Cl)cc2)c([N+](=O)[O-])c1,inconclusive: 63.1%
9,O=C(c1ccc(COc2ccccc2Br)o1)N1N=C(C(F)F)CC1(O)C(F)F (stereo not drawn),inactive: 102%
10,CCc1nc(N2CCCCC2C(=O)O)c2oc3ccccc3c2n1 (stereo not drawn),inconclusive: 108%
11,NS(=O)(=O)c1ccc(S(=O)(=O)N2CCCC2)cc1,inactive: 104%
12,c1ccc(CCc2nc(-c3ccc(-n4cccc4)cc3)no2)cc1,inactive: 96.7%
13,Cc1cc(C)cc(NC(=O)CSc2nc(CSc3ccc(Cl)cc3)cc(=O)[nH]2)c1,inconclusive: 109%
14,COc1ccc(N2C(=O)C(Cl)=C(Oc3cccc(OC)c3)C2=O)cc1,inconclusive: 105%
15,O=[N+]([O-])c1nn(-c2ccc(Cl)cc2)n(O)c1=NCc1ccccc1Cl,inconclusive: 104%
16,CC1(C)OC(=O)C(=NNc2ccc(C(=O)O)cc2)C(=O)O1,inconclusive: 98%
17,CCOc1ccc(N2C(=O)C(=O)/C(=C(/O)c3ccccc3)C2c2ccccc2[N+](=O)[O-])cc1 (stereo not drawn),inconclusive: 119%
18,COc1ccc(C2CC3(O)CC(C#N)(C(=O)N3)C2(C#N)C#N)cc1 (stereo not drawn),inconclusive: -102%
19,CC(=O)Nc1ccc(NC(=O)c2c([N+](=O)[O-])c(C(C)(C)C)nn2C)cc1,inconclusive: 130%
20,Cc1ccc(C(=O)NC2=NCCS2)cc1,inconclusive: 63.5%
21,O=C(c1sccc1Br)N1CCN(Cc2ccc3c(c2)OCO3)CC1,inconclusive: 141%
22,CC(C)NC(=O)NNc1c(Cl)cncc1Cl,inconclusive: 30.3%

row,SMILES,binding response (% of control)
1,C=CCNC(=S)NNC(=O)c1ccc(=O)n(Cc2ccc(Cl)cc2Cl)c1,inconclusive: 107%
2,COc1ccccc1/C=C\C(=O)NCC(=O)N/N=C(\C)Cc1ccccc1,inconclusive: 88.8%
3,CN(Cc1ccccc1)C(=O)CSc1nc2cc(C(=O)N3CCC(C(N)=O)CC3)ccc2c(=O)n1-c1ccccc1,inconclusive: 111%
4,O=C(Nc1cccc2ncccc12)C(c1ccccc1)c1ccccc1,inconclusive: 87%
5,O=C(Nc1ccc(F)cc1F)c1csc(-c2ccncc2)n1,inconclusive: 100%
6,O=C(CSc1nnc(SCc2ccc(Cl)cc2)s1)c1ccc2c(c1)OCO2,inactive: 93.5%
7,CCCCCCCCCC(=O)N1c2ccccc2NC(=O)C1CC(=O)Nc1ccc(C(=O)O)cc1 (stereo not drawn),inconclusive: 76.3%
8,O=C(NNc1ncc(C(F)(F)F)cc1Cl)c1ccc(Cl)c(Cl)c1,inconclusive: 144%
9,NC(=O)N\N=C/C=C/C=C/c1ccc(F)cc1,inconclusive: 162%
10,CC(C)(C)c1ccc(C(=O)NNc2cc(N3CCCCC3)nc(N3CCCCC3)n2)cc1,active: 643% [activator]
11,COc1ccc([N+](=O)[O-])cc1NC(=S)NC(C)=O,inconclusive: 118%
12,COc1cccc(-n2c(C)nn(CCOc3ccccc3)c2=O)c1,inconclusive: 95.2%
13,O=C(CSC1=NNC(c2ccccn2)S1)Nc1cccc(Cl)c1 (stereo not drawn),inconclusive: 118%
14,Cc1cc(=O)[nH]c(SCn2nnc3ccccc3c2=O)n1,active: 29.6%
15,Cc1cc(C)n(CC(C)NCc2cn[nH]c2-c2ccc(C)c(C)c2)n1 (stereo not drawn),inconclusive: 91.3%
16,O=C(NNC(=O)c1ccc(Cl)cc1Cl)c1csc(-c2cccnc2)n1,inconclusive: 121%
17,Cc1cc(C(=O)N/N=C/c2ccc([N+](=O)[O-])o2)c(C)o1,inconclusive: 101%
18,Cc1cc(N2CCOCC2)n2ncc(-c3ccc(Cl)cc3)c2n1,inconclusive: 94.7%
19,CC(C)(C)NC(=O)C(c1ccccn1)N(C(=O)C1CSC(=O)C1)c1ccc(F)cc1 (stereo not drawn),inactive: 99.7%
20,CN(C)c1nc(N)c([N+](=O)[O-])c(NCc2ccccc2)n1,inactive: 103%
21,CCNc1nc(OC)nc(SCC(=O)Nc2ccccc2)n1,inconclusive: 102%
22,COc1ccc2c(C)cc(=S)[nH]c2c1,inconclusive: 97.1%

row,SMILES,binding response (% of control)
1,CC1Cc2ccccc2N1S(=O)(=O)c1cccc(C(=O)N2CC(=O)Nc3ccccc32)c1 (stereo not drawn),inconclusive: -226%
2,CCCCNC(=O)N(O)C1N(/N=C/c2cccnc2)C(=S)SC1(C)C (stereo not drawn),inconclusive: 134%
3,CCOC(=O)CC/C(C)=N\N=C1\SC(CC(=O)O)C(=O)N1c1ccccc1 (stereo not drawn),inconclusive: 124%
4,COC(=O)C1=C(C(=O)OC)[C@@H]2N(Cc3ccccc3)c3ccccc3[C@@]23C[C@@H](CO)N(C(=O)NC2CCCC2)C3=N1,inconclusive: 99%
5,Cc1nn(-c2ccc(Cl)cc2)c(=O)c2c(C)noc12,inconclusive: 87%
6,C=CCNc1nnnc2c1sc1nc(N3CCOCC3)c3c(c12)CCCC3,inconclusive: 90.8%
7,Cn1c(=O)c(NCCc2ccccc2)c2c3c(cccc31)C(=O)c1ccccc1-2,inactive: 102%
8,O=C(CSc1nnc(C2COc3ccccc3O2)o1)N1CCCC1 (stereo not drawn),inconclusive: 103%
9,CCOC(=O)C1=NOC(C(=O)NN(C)c2ncc(C(F)(F)F)cc2Cl)C1 (stereo not drawn),inactive: 98%
10,CC(C)(C)S(=O)(=O)c1cnc2c(S(=O)(=O)c3ccccc3)cnn2c1N,inconclusive: 115%
11,CC(=O)N1CCC(N2CCN(Cc3ccc(C)cc3)C(CCO)C2)CC1 (stereo not drawn),inconclusive: 95.1%
12,CCOc1ccc(Nc2nc(N)nc(CSC(=S)N3CCOCC3)n2)cc1,inconclusive: 63.7%
13,CC(CCCC(C)(C)O)CC1C2=C(CCCC2=O)OC2=C1C(=O)CCC2 (stereo not drawn),inactive: 103%
14,O=C1/C(=N\S(=O)(=O)c2cccs2)C([n+]2cccc(Cc3ccccc3)c2)=C([O-])c2ccccc21,inconclusive: 97.1%
15,NC(=O)[C@@H]1CCCN1Cc1nc(Cc2ccccc2Cl)no1,inactive: 101%
16,COCC1=C(C(=O)OC)C(c2cccs2)n2ncnc2N1 (stereo not drawn),inconclusive: 400%
17,COc1ccc(OC)c(-c2c3cc(O)c(=O)cc-3oc3cc(O)c(O)cc23)c1,active: 4.67%
18,O=C(Cn1cc(/C=N/NC(=O)c2cccc3ccccc23)c2ccccc21)Nc1ccc(F)cc1,inconclusive: 106%
19,O=C(Oc1ccc(Br)cc1)c1cncc(Br)c1,active: 159% [activator]
20,O=C(NC(=O)N1CCN(C(c2ccccc2)c2ccccc2)CC1)c1ccccc1,inconclusive: 110%
21,O=C(c1ccc2nc(-c3ccccc3)c(-c3ccccc3)nc2c1)N1CCCCC1,inconclusive: 72.5%
22,O=C(COC(=O)C1CC(=O)N(Cc2ccccc2)C1)Nc1ccccc1F (stereo not drawn),inconclusive: 158%

# Retrieved by structure from the list above, seven records:
row,SMILES,binding response (% of control)
8,O=C(CSc1nnc(C2COc3ccccc3O2)o1)N1CCCC1 (stereo not drawn),inconclusive: 103%
17,COc1ccc(OC)c(-c2c3cc(O)c(=O)cc-3oc3cc(O)c(O)cc23)c1,active: 4.67%
10,CC(C)(C)S(=O)(=O)c1cnc2c(S(=O)(=O)c3ccccc3)cnn2c1N,inconclusive: 115%
14,O=C1/C(=N\S(=O)(=O)c2cccs2)C([n+]2cccc(Cc3ccccc3)c2)=C([O-])c2ccccc21,inconclusive: 97.1%
18,O=C(Cn1cc(/C=N/NC(=O)c2cccc3ccccc23)c2ccccc21)Nc1ccc(F)cc1,inconclusive: 106%
20,O=C(NC(=O)N1CCN(C(c2ccccc2)c2ccccc2)CC1)c1ccccc1,inconclusive: 110%
12,CCOc1ccc(Nc2nc(N)nc(CSC(=S)N3CCOCC3)n2)cc1,inconclusive: 63.7%
